Reference: the supplement of paper PMC5355238
Structures can show the parent of a compound that is named as a salt. The list shows a part of the results. Most values lie at the level of the controls, where differences are scatter.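 Reh, a human leukemia cell line, is read out by flow cytometry as the median γH2AX antibody signal in S-phase cells; the score counts standard deviations from the median difference of each paired plate set. Scores above 2.5 were candidate hits; scores below -2 mark compounds lowering MK1775-induced damage.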

Test system: Reh
Test: Z' of S-phase gammaH2AX difference (drug + MK1775 minus drug alone) (Z-score); higher = stronger synergistic S-phase DNA damage with MK1775
Details: MK1775 concentration 400 nM; first compound 10 µM; 4 h

SMILES | Z' of S-phase gammaH2AX difference (Z-score)
CC(N)=NCCCC[C@H](N)C(=O)O [L-N6-(1-Iminoethyl)lysine hydrochloride] + C=CCn1c(=O)c2cnc(Nc3ccc(N4CCN(C)CC4)cc3)nc2n1-c1cccc(C(C)(C)O)n1 [MK1775] | inactive: -0.274
Cc1ccc(O)c(N=Nc2ccccc2)n1 + C=CCn1c(=O)c2cnc(Nc3ccc(N4CCN(C)CC4)cc3)nc2n1-c1cccc(C(C)(C)O)n1 [MK1775] | inactive: -0.449
O=C(O)CCC(NC(=O)c1ccccc1C(=O)O)C(=O)O [Phthalamoyl-L-glutamic acid trisodium] + C=CCn1c(=O)c2cnc(Nc3ccc(N4CCN(C)CC4)cc3)nc2n1-c1cccc(C(C)(C)O)n1 [MK1775] | inactive: 0.539
CSc1ccc2c(c1)C(N1CCN(C)CC1)Cc1ccccc1S2 (stereo not drawn) [Methiothepin mesylate] + C=CCn1c(=O)c2cnc(Nc3ccc(N4CCN(C)CC4)cc3)nc2n1-c1cccc(C(C)(C)O)n1 [MK1775] | inactive: 0.912
CNCCCC1c2ccccc2C=Cc2ccccc21 [Protriptyline hydrochloride] + C=CCn1c(=O)c2cnc(Nc3ccc(N4CCN(C)CC4)cc3)nc2n1-c1cccc(C(C)(C)O)n1 [MK1775] | inactive: -0.0291
CCN1CCC[C@H]1CNC(=O)c1c(OC)ccc(I)c1O + C=CCn1c(=O)c2cnc(Nc3ccc(N4CCN(C)CC4)cc3)nc2n1-c1cccc(C(C)(C)O)n1 [MK1775] | inactive: -1.07
C[C@]12CCC(=O)C=C1CC[C@@H]1[C@@H]2[C@@H](O)C[C@@]2(C)[C@H]1CC[C@]2(O)C(=O)CO [Hydrocortisone (Cortisol)] + C=CCn1c(=O)c2cnc(Nc3ccc(N4CCN(C)CC4)cc3)nc2n1-c1cccc(C(C)(C)O)n1 [MK1775] | inactive: 0.486
C[C@]12CCC(=O)C=C1CC[C@@H]1[C@@H]2[C@@H](O)C[C@@]2(C)[C@H]1CC[C@]2(O)C(=O)CO [Hydrocortisone] + C=CCn1c(=O)c2cnc(Nc3ccc(N4CCN(C)CC4)cc3)nc2n1-c1cccc(C(C)(C)O)n1 [MK1775] | inactive: -0.663
S=C(S)OC1CC2CC1C1CCCC21 [D-609 potassium] + C=CCn1c(=O)c2cnc(Nc3ccc(N4CCN(C)CC4)cc3)nc2n1-c1cccc(C(C)(C)O)n1 [MK1775] | inactive: -0.0541
Oc1ncnc2[nH]ncc12 [Allopurinol] + C=CCn1c(=O)c2cnc(Nc3ccc(N4CCN(C)CC4)cc3)nc2n1-c1cccc(C(C)(C)O)n1 [MK1775] | inactive: 0.568
CCC(=O)N1CCN(c2ccc(-n3c(=O)ccc4cnc5ccc(-c6cnc7ccccc7c6)cc5c43)cc2C(F)(F)F)CC1 [Torin 1] + C=CCn1c(=O)c2cnc(Nc3ccc(N4CCN(C)CC4)cc3)nc2n1-c1cccc(C(C)(C)O)n1 [MK1775] | inactive: -0.873
COc1ccc(CCN(C)CCCC(C#N)(c2ccc(OC)c(OC)c2)C(C)C)cc1OC (stereo not drawn) [(?)-Verapamil hydrochloride] + C=CCn1c(=O)c2cnc(Nc3ccc(N4CCN(C)CC4)cc3)nc2n1-c1cccc(C(C)(C)O)n1 [MK1775] | inactive: 0.565
C[N+]1(CCCCC[N+]2(C)CCCC2)CCCC1 [Pentolinium di[L(+)-tartrate]] + C=CCn1c(=O)c2cnc(Nc3ccc(N4CCN(C)CC4)cc3)nc2n1-c1cccc(C(C)(C)O)n1 [MK1775] | inactive: 2.41
O=C(Nc1ccccc1)c1cc([N+](=O)[O-])ccc1Cl + C=CCn1c(=O)c2cnc(Nc3ccc(N4CCN(C)CC4)cc3)nc2n1-c1cccc(C(C)(C)O)n1 [MK1775] | inactive: -0.311
O=c1cc(-c2cccc3c2Sc2ccccc2S3)oc(N2CCOCC2)c1 + C=CCn1c(=O)c2cnc(Nc3ccc(N4CCN(C)CC4)cc3)nc2n1-c1cccc(C(C)(C)O)n1 [MK1775] | inactive: -0.143
Fc1ccc(C(c2ccc(F)cc2)N2CCN(C/C=C/c3ccccc3)CC2)cc1 [Flunarizine dihydrochloride] + C=CCn1c(=O)c2cnc(Nc3ccc(N4CCN(C)CC4)cc3)nc2n1-c1cccc(C(C)(C)O)n1 [MK1775] | inactive: -0.59
N#Cc1c(O)c2c(-c3ccc(-c4ccccc4O)cc3)csc2[nH]c1=O + C=CCn1c(=O)c2cnc(Nc3ccc(N4CCN(C)CC4)cc3)nc2n1-c1cccc(C(C)(C)O)n1 [MK1775] | inactive: 0.622
COc1cccc2c1C(=O)c1c(O)c3c(c(O)c1C2=O)C[C@@](O)(C(=O)CO)C[C@@H]3O[C@H]1C[C@H](N)[C@H](O)[C@H](C)O1 [Doxorubicin (Adriamycin)] + C=CCn1c(=O)c2cnc(Nc3ccc(N4CCN(C)CC4)cc3)nc2n1-c1cccc(C(C)(C)O)n1 [MK1775] | inactive: 0.845
Cn1cnc2c(NCc3ccccc3)nc(NCCO)nc21 [Olomoucine] + C=CCn1c(=O)c2cnc(Nc3ccc(N4CCN(C)CC4)cc3)nc2n1-c1cccc(C(C)(C)O)n1 [MK1775] | inactive: 0.505
COc1cccc2c1[C@@H]1CN(CCCCn3c(=O)[nH]c4c(sc5ncc(-c6ccccc6)nc54)c3=O)C[C@@H]1CO2 [Fiduxosin hydrochloride] + C=CCn1c(=O)c2cnc(Nc3ccc(N4CCN(C)CC4)cc3)nc2n1-c1cccc(C(C)(C)O)n1 [MK1775] | inactive: -0.955
Nc1nc(Cl)nc2c1ncn2[C@H]1C[C@H](O)[C@@H](CO)O1 [Cladribine] + C=CCn1c(=O)c2cnc(Nc3ccc(N4CCN(C)CC4)cc3)nc2n1-c1cccc(C(C)(C)O)n1 [MK1775] | inactive: -0.283
N=C(N)NC(=O)Cc1c(Cl)cccc1Cl [Guanfacine hydrochloride] + C=CCn1c(=O)c2cnc(Nc3ccc(N4CCN(C)CC4)cc3)nc2n1-c1cccc(C(C)(C)O)n1 [MK1775] | inactive: 0.6
CN1C[C@H](O)[C@@H](O)[C@H](O)[C@H]1CO [N-Methyl-1-deoxynojirimycin] + C=CCn1c(=O)c2cnc(Nc3ccc(N4CCN(C)CC4)cc3)nc2n1-c1cccc(C(C)(C)O)n1 [MK1775] | inactive: 0.432
